In patent US8722052B2, “Vaccinia virus protein A46 peptide and use thereof” (priority 2008, dated 2014):
Part of at least one peptide drawing is inferred or uncertain, most often the ends. Ends that are not written are not given here.

Protein sequences, listed by entry. Tags and fused reporters are not part of them. Residues count along the entry.
UniProt O15455, 24-904: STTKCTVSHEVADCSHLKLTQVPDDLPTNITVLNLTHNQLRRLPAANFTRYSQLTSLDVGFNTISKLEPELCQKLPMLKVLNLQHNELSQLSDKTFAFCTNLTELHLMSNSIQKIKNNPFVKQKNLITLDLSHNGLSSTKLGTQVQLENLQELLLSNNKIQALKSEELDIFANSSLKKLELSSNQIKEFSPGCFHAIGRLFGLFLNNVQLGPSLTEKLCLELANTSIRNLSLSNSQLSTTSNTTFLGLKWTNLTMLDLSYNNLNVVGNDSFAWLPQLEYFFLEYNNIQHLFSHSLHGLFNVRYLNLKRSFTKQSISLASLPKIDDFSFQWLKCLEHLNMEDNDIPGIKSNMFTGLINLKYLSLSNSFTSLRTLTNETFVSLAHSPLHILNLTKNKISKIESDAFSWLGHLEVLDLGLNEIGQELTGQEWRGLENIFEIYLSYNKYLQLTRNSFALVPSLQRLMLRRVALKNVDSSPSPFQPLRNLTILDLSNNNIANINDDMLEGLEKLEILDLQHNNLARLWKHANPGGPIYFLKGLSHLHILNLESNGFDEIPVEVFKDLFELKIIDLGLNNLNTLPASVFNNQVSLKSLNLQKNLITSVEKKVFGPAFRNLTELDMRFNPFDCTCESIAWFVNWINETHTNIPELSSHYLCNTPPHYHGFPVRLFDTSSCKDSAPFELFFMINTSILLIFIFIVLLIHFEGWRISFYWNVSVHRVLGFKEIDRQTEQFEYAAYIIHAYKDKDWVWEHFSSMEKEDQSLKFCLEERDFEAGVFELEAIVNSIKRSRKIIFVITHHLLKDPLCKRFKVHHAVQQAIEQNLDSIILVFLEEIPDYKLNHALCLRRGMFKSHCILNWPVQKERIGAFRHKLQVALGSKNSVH
UniProt O60603, 21-784: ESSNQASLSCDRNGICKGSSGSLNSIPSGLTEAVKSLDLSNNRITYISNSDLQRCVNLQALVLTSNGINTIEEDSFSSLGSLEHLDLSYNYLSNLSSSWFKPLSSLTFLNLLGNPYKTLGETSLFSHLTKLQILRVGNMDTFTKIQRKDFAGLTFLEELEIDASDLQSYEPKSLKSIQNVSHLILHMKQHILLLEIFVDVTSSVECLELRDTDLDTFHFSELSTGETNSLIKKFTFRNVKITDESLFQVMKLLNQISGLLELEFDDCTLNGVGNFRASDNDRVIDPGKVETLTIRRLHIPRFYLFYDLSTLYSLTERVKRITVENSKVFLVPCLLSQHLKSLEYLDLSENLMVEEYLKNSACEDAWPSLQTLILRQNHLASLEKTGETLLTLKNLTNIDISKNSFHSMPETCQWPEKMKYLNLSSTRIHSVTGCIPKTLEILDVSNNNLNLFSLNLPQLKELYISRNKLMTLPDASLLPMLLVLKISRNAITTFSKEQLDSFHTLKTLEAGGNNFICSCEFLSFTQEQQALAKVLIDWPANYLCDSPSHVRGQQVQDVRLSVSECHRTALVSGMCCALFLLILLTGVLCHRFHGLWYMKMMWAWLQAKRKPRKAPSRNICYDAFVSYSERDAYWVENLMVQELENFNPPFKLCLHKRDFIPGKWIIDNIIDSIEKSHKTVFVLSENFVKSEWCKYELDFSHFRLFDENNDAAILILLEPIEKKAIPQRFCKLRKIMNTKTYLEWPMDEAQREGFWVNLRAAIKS

What was measured:
TLR4 [1] = assay: LPS-induced TNFα in PMA-differentiated U937 cells, ELISA; format: cell-based, human; details: peptide 5 or 20 μM 1 h before 100 ng/ml LPS, 24 h
Protocol: FIGS. 3A and B are bar charts showing the effect of peptides derived from A46 on LPS-induced TNFα in human U937 cells. Cells were differentiated with 200 nM PMA and seeded in 96 well plates (2×10^5 cells/ml) 24 hours before treatment. A46 peptides were added to the cells at a concentration of 5 or 20 μM 1 hour before stimulating with 100 ng/ml LPS. Supernatants were collected 24 hours after stimulation and assayed for TNFα by ELISA. No peptides were added into the control wells (black bars). (A) peptides A461-A467 (SEQ ID NO. 17 to 23). (B) peptides A468-A4614 (SEQ ID NO. 24 to 30) (excluding A4612 SEQ ID NO. 28). Data is representative of at least two experiments each performed in triplicate and is expressed as mean±s.d;
(§1) Cytokine and chemokine production from cells or mouse serum was measured by ELISA using Duoset kits from R&D systems, according to the manufacturer's instructions.
LPS is a component of a cell wall of Gram-negative bacteria which is recognised by a homodimer of TLR4 and signals to NFκB via both a MyD88- and TRIF-dependent pathway (O'Neill and Bowie, 2007). In order to examine the effect of the peptides on TLR4-dependent gene induction in human cells, the human monocytic lymphoma cell line U937 was used. U937 cells were differentiated into macrophages by treatment with 200 nM PMA for 24 hours before any further manipulations. […]

TLR3 = biological target: T1, TLR3 (Homo sapiens, UniProt O15455); assay: poly(I:C)-induced NFκB / ISRE luciferase reporter assay in HEK293_TLR3 cells; format: cell-based; details: peptide 2, 5 or 10 μM, 25 μg/ml poly(I:C), 6 h
T1 construct: expressed in transfected cells
Protocol: FIGS. 11A and B are bar charts showing the effect of A464 and scrambled A464 (ConA464) on poly(I:C)-induced TLR3 signalling in HEK293 cells. HEK293_TLR3 cells were seeded in 96 well plates (1.5×10^5 cells/ml) 24 hours before transfection with the plasmid DNA. Cells were transfected with 60 ng of either ISRE-Luciferase (A) or NFκB-Luciferase (B) and 20 ng of TK-Renilla reporter gene plasmids. The total volume of plasmid DNA transfected into the cells was made up to 230 ng by adding pcDNA.
Scrambled A464 (ConA464) (SEQ ID NO. 32) and A464 (SEQ ID NO. 20) peptides were added to the cells at a concentration of 2, 5 or 10 μM the next day and cells were stimulated with 25 μg/ml poly(I:C) 1 hour after treatment with the peptide. Cells were harvested and reporter gene assays performed 6 hr after stimulation with the agonist. No peptides were added to the control wells (black bars). Data is representative of at least three experiments each performed in triplicate. Data are expressed as mean fold induction±s.d. relative to control levels;
FIGS. 20A and B are bar charts showing the effect of shortened A464 peptides with deletions of N- and C-terminal amino acids on TLR4- and TLR3-induced NFκB activation in HEK293 cells. […] Data is representative of three experiments each performed in triplicate and is expressed as mean fold induction±s.d. relative to control levels; […]

TLR2 = biological target: T2, TLR2 (Homo sapiens, UniProt O60603); assay: Pam3CysK4-induced TNFα in THP-1 cells, ELISA; format: cell-based; details: peptide 1, 5 or 10 μM
T2 construct: endogenous in cells; host or cells: PMA-differentiated THP-1
Protocol: FIGS. 9A and B are bar charts showing the effect of A464 on Pam3CysK4-induced TNFα in human THP-1 cells. Cells were seeded in 96 well plates (3×10^5 cells/ml) and differentiated with 200 nM PMA for 24 hours before treatment. A464 (SEQ ID NO. 20) was added to the cells at a concentration of 1, 5 or 10 μM 1 hour before stimulating with either 100 ng/ml (A) or 10 ng/ml Pam3CysK4 (B). Supernatants were collected 24 hours after stimulation and assayed for TNFα by ELISA. Cells from (B) were also assayed for viability by the MTT assay (C). No peptides were added to the control wells (black bars). Data is representative of at least three experiments each performed in triplicate and is expressed as mean±s.d;
as §1
In order to determine whether A464 (SEQ ID No. 20) was specific for TLR4, other TLR pathways were next assayed for sensitivity to A464 (SEQ ID No. 20). A scrambled version of A464 (SEQ ID No. 20) peptide was designed to use as a further control peptide, and this had the sequence: […] (ConA464, SEQ ID No. 32). The A464R (SEQ ID No. 20) and ConA464 (SEQ ID No. 32) peptides were assayed for inhibition of TLR2 signalling in THP-1 cells. […]

TLR4 [2] = assay: LPS-induced TNFα in primary human PBMC, ELISA; format: cell-based; details: peptide 5 μM, 10 ng/ml LPS, 6 h
Protocol: FIGS. 13A and B are bar charts showing the effect of A467 and A464 on LPS-induced TNFα production and on cell viability in primary human cells. Peripheral blood mononuclear cells (PBMCs) were seeded in 96 well plates (1 ×10^6 cells/ml) 24 hours before treatment. A467 (SEQ ID NO. 23) and A464 (SEQ ID NO. 20) were added to the cells at 1, 5 and 25 μM 1 hour before stimulating with 10 ng/ml LPS. The peptides were added into the unstimulated control wells at 25 μM. Supernatants were collected 6 hours after stimulation and assayed for TNFα production by ELISA (A). The cells were assayed for viability by the MTT assay (B). No peptides were added to the control wells (black bars). Data is representative of at least three experiments each performed in triplicate and is expressed as mean±s.d;
FIGS. 14A and B are bar charts showing the comparison of the inhibitory effect of the L- and D-forms of A464 on LPS-induced TNFα in primary human and murine cells. […] Data is representative of at least three experiments each performed in triplicate and is expressed as mean±s.d;
FIGS. 15A and B are bar charts showing the effect of the D-form A464 peptide with the TAT delivery sequence on LPS induced TNFα in primary human and murine cells. […] Data is representative of at least three experiments each performed in triplicate and is expressed as mean±s.d; […]

## DFVNFVKDMICRRRRRRRRR [Peptide A4610]
TLR4 [1]
  inhibition of LPS (TLR4)-induced TNFα production: also effective, but less so

## KALSIFYEKYLRRRRRRRRR [ConA464]
TLR3
  inhibition of TLR3-mediated ISRE induction: insensitive to inhibition
  inhibition of TLR3-mediated NFκB activation: insensitive to inhibition
TLR2; 10 ng/ml Pam3CysK4, 24 h
  inhibition of Pam3CysK4-induced hTNFα secretion: slightly heightened
TLR2; 100 ng/ml Pam3CysK4, 24 h
  inhibition of Pam3CysK4-induced hTNFα secretion: only very minor inhibitory effects

## KYSFKLILAAYRRRRRRRRR [Peptide E10A, KYSFKLILAAY-9R]
TLR4 [2]
  inhibitory potential compared to parental A464 (alanine scan): reduced inhibitory potential
